Measurements: the supplement of paper PMC3334620
In all, about 33,000 sequences were measured (“E-score (-0.5 to 0.5)”: median about -0.016, highest 2% from about 0.3 on). The list shows a part of the results.

molecular target: T1, Yer184c (UniProt P39961); test: PBM E-score (8-mer binding enrichment) (E-score (-0.5 to 0.5)); higher = stronger / more preferred TF binding; conditions: protein concentration: 100 nM; construct: GST-full length
T1 sequence: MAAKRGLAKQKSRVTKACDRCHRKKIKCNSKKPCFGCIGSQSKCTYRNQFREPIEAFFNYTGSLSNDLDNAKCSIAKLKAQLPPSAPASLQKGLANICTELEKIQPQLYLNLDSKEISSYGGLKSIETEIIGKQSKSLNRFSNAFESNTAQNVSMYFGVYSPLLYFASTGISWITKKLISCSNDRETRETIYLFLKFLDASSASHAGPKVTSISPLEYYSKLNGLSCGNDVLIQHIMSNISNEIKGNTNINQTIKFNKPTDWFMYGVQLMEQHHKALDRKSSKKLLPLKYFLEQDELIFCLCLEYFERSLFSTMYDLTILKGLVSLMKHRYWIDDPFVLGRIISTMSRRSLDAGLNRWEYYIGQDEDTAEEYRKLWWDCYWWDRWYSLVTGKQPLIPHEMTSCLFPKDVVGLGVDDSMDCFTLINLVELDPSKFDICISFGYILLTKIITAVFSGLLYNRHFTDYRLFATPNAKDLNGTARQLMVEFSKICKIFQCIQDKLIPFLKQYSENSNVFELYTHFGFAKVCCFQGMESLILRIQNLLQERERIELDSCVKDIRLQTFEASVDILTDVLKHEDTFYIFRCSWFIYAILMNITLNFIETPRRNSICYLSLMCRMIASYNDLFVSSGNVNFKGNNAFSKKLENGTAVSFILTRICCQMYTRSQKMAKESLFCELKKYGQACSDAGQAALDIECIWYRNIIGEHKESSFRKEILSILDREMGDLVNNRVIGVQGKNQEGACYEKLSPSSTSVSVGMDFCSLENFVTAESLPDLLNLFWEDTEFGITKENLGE
Summary of the method: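 E-scores (a modified Wilcoxon-Mann-Whitney statistic) were assigned by the Universal PBM Analysis Suite to every ungapped eight-base word pooled with its reverse complement. The input came from universal all-10-mer Agilent arrays made double-stranded by primer extension and probed with GST-tagged yeast transcription factors at about 100-200 nM. Fluorescent anti-GST detected bound protein, and masliner normalised the scans.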

| Sequence | PBM E-score |
| --- | --- |
| AGCAAAAT | 0.215 |
| CGTGGGCC | -0.00122 |
| CTGGACGA | -0.33 |
| AAAACGGC | 0.213 |
| CGGAACAA | 0.39 |
| CTCTGGCA | -0.235 |
| CTTTTACC | 0.163 |
| AATCAGCC | -0.117 |
| TTCTTCAA | 0.0435 |
| TAAGATAA | -0.00611 |
| CTGTTGTC | 0.0854 |
| ATCTTGAA | 0.13 |
| AGGGTACA | -0.178 |
| ACAGGGTC | -0.22 |
| CGTCTTAA | 0.111 |
| GTTTATGA | 0.147 |
| CGATGTGA | -0.0857 |
| ATACCTGG | -0.365 |
| CAGTGAGA | -0.0108 |
| TCCAAACA | 0.0813 |
| CGCTTTTC | -0.0353 |
| GACAAGAC | 0.0209 |
| AACGTTGT | 0.046 |
| CGAAGACG | -0.0963 |
| CATACTTC | -0.0518 |

| Sequence | PBM E-score |
| --- | --- |
| CTTCCTTC | -0.124 |
| AGAAAGAT | -0.0369 |
| TGCGGCAA | 0.0333 |
| GTAACCAC | -0.321 |
| AAGGTGTC | -0.0419 |
| ACGGTAGT | 0.0307 |
| AATAGGGG | -0.158 |
| CGCAGGAG | -0.149 |
| GCCCACAC | -0.0207 |
| CTATGCTC | -0.278 |
| AAACGCTG | -0.124 |
| ATTAGGGA | -0.135 |
| ATATCATG | -0.099 |
| CCTTCTAA | -0.136 |
| CGAATACA | 0.00165 |
| CCTAGGGC | -0.155 |
| ATGTGCAG | -0.109 |
| ATTATTAC | 0.0952 |
| CATGAATG | -0.0649 |
| GCTGGCTA | -0.26 |
| CCAGCGGG | 0.134 |
| ATATGTAG | -0.0556 |
| AAAACACG | 0.141 |
| ATGCAGAA | 0.0488 |
| GCAGTAAA | 0.0245 |

| Sequence | PBM E-score |
| --- | --- |
| AGCTTAAC | 0.0281 |
| AGTTTTCC | 0.254 |
| CACATGCC | 0.00938 |
| ACTCGCAT | -0.0528 |
| CTTGGGGA | -0.0684 |
| CCGTAAGG | -0.115 |
| GTTAGATA | 0.0944 |
| TGACAACA | 0.097 |
| ACTAGGCC | -0.235 |
| AGTAAAGG | -0.0145 |
| AGAGGTGG | -0.147 |
| CACGCGAG | 0.103 |
| GAGCAGAC | -0.176 |
| GGTGACGA | -0.0706 |
| CAGCTCCC | -0.248 |
| GAACCTCC | -0.0558 |
| ATTAAACA | 0.15 |
| AATATCTA | 0.0259 |
| GGAACCTA | -0.0284 |
| ACTGAATG | 0.0297 |
| CGCCTACG | -0.178 |
| TGACCAAA | 0.0847 |
| AATAATCT | 0.111 |
| ATTAGGCG | 0.0255 |
| ATGAACGA | -0.0158 |

| Sequence | PBM E-score |
| --- | --- |
| CACCTCAA | 0.00761 |
| ATGACATC | 0.06 |
| CCCTAGGG | -0.235 |
| CTTGCCAA | 0.0268 |
| TTCAGGAA | 0.0272 |
| AAAGACCA | -0.239 |
| TGGATACA | -0.221 |
| AAAGTAAG | 0.0454 |
| CATCGGGC | -0.109 |
| ACGACTAA | -0.115 |
| GGCGGACC | 0.0558 |
| CCCGTTGA | -0.0292 |
| GCCAGCAA | -0.118 |
| CTAAACAC | -0.0565 |
| AGGGATCG | -0.127 |
| CACCTCAG | -0.236 |
| CAAGGCCA | -0.168 |
| CGTGAGGC | -0.0854 |
| GGCGGGAA | 0.0413 |
| ACGACTAT | -0.0269 |
| CTCATCCC | -0.179 |
| CAGATTGC | -0.0216 |
| ACCGCCCT | -0.201 |
| CATCGATA | 0.00602 |
| CGCCGACG | 0.187 |

Three entries picked at random from those above:

| Sequence | PBM E-score |
| --- | --- |
| ACGACTAT | -0.0269 |
| CCCGTTGA | -0.0292 |
| AAAGTAAG | 0.0454 |

(list continues)

| Sequence | PBM E-score |
| --- | --- |
| ACACCCCC | -0.313 |
| GTGGGAAC | -0.16 |
| GGCGCCAC | -0.114 |
| CAGCTTCC | -0.127 |
| CACGGTCG | -0.0578 |
| CTGTCTAA | -0.0326 |
| TCTAGGCA | 0.05 |
| TCCAAGCA | -0.256 |
| GATTCCGC | 0.0917 |
| ATCGTAAC | 0.178 |
| ACGGTGGG | -0.226 |
| CGGTACCG | 0.32 |
| GGCTTTTA | -0.0907 |
| AATATGTC | 0.072 |
| GCTGGTCC | -0.0365 |
| CGCGAGGA | -0.0858 |
| AAATAAGC | 0.0752 |
| ACTTGTAA | -0.0878 |
| GCCAACTA | -0.132 |
| ATTTAGTC | 0.133 |
| CGAAAAGC | 0.0252 |
| CCATTCGC | -0.146 |
| TGTCGTAA | -0.163 |
| CCCGTGTC | 0.0588 |
| CAGAGGAA | -0.0556 |

In another format: results already given.
Sequence | PBM E-score
GTGGGAAC | -0.16
TCTAGGCA | 0.05
CAGAGGAA | -0.0556

Continuation.

| Sequence | PBM E-score |
| --- | --- |
| ATGGCGCC | -0.0304 |
| AGACGGCA | 0.15 |
| CCGATCCG | 0.25 |
| TATGTCAA | 0.21 |
| AATCGCGA | 0.00301 |
| AAGTCGCA | 0.0733 |
| CCATAAGC | -0.181 |
| ATACCTCG | 0.108 |
| CCTATCGC | -0.312 |
| AAGCGGGC | -0.325 |
| AGAGCGCC | 0.0563 |
| AGTACCGA | 0.103 |
| GCCACAAC | 0.0591 |
| CCACAGGC | -0.36 |
| GACTGATC | -0.12 |
| AGCCATCG | -0.189 |
| AAGCCCGC | 0.128 |
| ACGAGCCA | -0.148 |
| GATTGACC | -0.124 |
| GATTGACA | 0.0426 |
| AGGGTCTG | -0.252 |
| AGTCTAAT | -0.018 |
| CAGACCAG | -0.107 |
| CCTGTGCA | -0.152 |
| AGACATTC | -0.0101 |

4 entries from above, as labelled records.
AGACGGCA
  PBM E-score: 0.15
TATGTCAA
  PBM E-score: 0.21
AGAGCGCC
  PBM E-score: 0.0563
GACTGATC
  PBM E-score: -0.12

Continued.

| Sequence | PBM E-score |
| --- | --- |
| CCAAAGAA | 0.106 |
| CAGCACTG | -0.242 |
| GGCAAGGA | 0.147 |
| CCGGTAAA | 0.321 |
| AAGAGAGC | -0.143 |
| ACTCGACC | 0.0322 |
| ATAGATAA | 0.15 |
| CACTGTAG | 0.172 |
| CCTAACGC | -0.00278 |
| AGCTGAAT | -0.0898 |
| CATCAGTA | -0.0984 |
| CACTGTTA | -0.176 |
| CGTTCCTC | 0.0805 |
| AACCGAGG | 0.0141 |
| ACCGCTGC | -0.188 |
| CATTGTAA | -0.0458 |
| ACGACTCC | -0.102 |
| CATCATGA | -0.0238 |
| AACCGCAG | -0.0887 |
| ATAACTTA | 0.157 |
| CCCCGCCG | -0.0767 |
| GAGTTGTA | 0.143 |
